Data taken from patent US20170035863A1 (UNIVERSITY OF LEEDS, priority 2014, published 2017).

Test: peptide synthesis
Conditions: whole synthesis

With H-DVAEPRMHKTAPPFDFEAIPEEYY(SO3)L-OH the “purity (crude or final not stated)” value was 95.6%.
